The list shows a part of the results, in another mix than the full data. At the low end of the ranking the order means little.
Each sequence was assayed against SPI1 (UniProt P17947) (assay: DAPPL (digital affinity profiling via proximity ligation, sequencing)). Conditions: 10 mM Tris-HCl pH 7.5, 50 mM NaCl, 1 mM DTT, 4% glycerol, room temperature, 30 min; GST-TFs on glutathione beads, 16-mer random dsDNA library, 0.1% …; high values mean tight binding; double strand, one strand shown; scale: fold enrichment (6-mer frequency, TF over GST control).
In the case of CAGTCG, the binding signal is reported as 0.156.
Work on AACCGT yielded a binding signal of 0.501.
In the case of GACTGA, the binding signal is reported as 0.767.
Work on GAATCG yielded a binding signal of 0.604.
AGTCGG was tested, and the binding signal was 0.163.
Work on GGGGGC yielded a binding signal of 0.567.
Work on GCATGA yielded a binding signal of 0.781.
In the case of GGGATA, the binding signal is reported as 0.736.
With ATGTGA the binding signal was 0.674.
CGAGTG was tested, and the binding signal was 0.749.
With GAAGGG the binding signal was 0.821.
Sequence GTGGGA has a binding signal of 0.62.
With CAGTGG the binding signal was 0.467.
GACGCT was tested, and the binding signal was 0.735.
With CGAGGC the binding signal was 0.664.
GACGGC showed a binding signal of 0.718.
With GAGCGC the binding signal was 0.536.
Sequence CCATGT has a binding signal of 0.804.
For CAGTGC, the binding signal was 0.765.
With TTCGTG the binding signal was 0.822.
Work on GGTACG yielded a binding signal of 0.826.
AGCGTG showed a binding signal of 0.364.
GTGTCG gave a binding signal of 0.609.
GGTTGA gave a binding signal of 0.754.
AGGTAG gave a binding signal of 0.586.
With CAAGAC the binding signal was 0.823.
AGTCGA gave a binding signal of 0.447.
ACGGAC gave a binding signal of 0.788.
Sequence CGGGGT has a binding signal of 0.647.
Sequence CAGGGC has a binding signal of 0.733.
In the case of GCAAGA, the binding signal is reported as 0.742.
GCAGAG gave a binding signal of 0.625.
CAGGCC showed a binding signal of 0.743.
For TTGAGT, the binding signal was 0.648.
With CAGACG the binding signal was 0.478.
GAGACC showed a binding signal of 0.212.
Work on GGTGGC yielded a binding signal of 0.718.
In the case of GGGTGC, the binding signal is reported as 0.734.
With GAGGTA the binding signal was 0.672.
